This test has as its target MDA ApoB100 (malondialdehyde oxidized apo B 100 protein portion of LDL) (UniProt P04114). Description: worded statement in the conclusions of Example 1; 2D03 in serum was quantified by an antigen-binding ELISA with MDA ApoB100 as capture reagent. (ELISA stands for enzyme-linked immunosorbent assay.)

Protein sequences, listed by entry. Tags and fused reporters are not part of them. Residues count along the entry.
UniProt P04114, residues 28-4563: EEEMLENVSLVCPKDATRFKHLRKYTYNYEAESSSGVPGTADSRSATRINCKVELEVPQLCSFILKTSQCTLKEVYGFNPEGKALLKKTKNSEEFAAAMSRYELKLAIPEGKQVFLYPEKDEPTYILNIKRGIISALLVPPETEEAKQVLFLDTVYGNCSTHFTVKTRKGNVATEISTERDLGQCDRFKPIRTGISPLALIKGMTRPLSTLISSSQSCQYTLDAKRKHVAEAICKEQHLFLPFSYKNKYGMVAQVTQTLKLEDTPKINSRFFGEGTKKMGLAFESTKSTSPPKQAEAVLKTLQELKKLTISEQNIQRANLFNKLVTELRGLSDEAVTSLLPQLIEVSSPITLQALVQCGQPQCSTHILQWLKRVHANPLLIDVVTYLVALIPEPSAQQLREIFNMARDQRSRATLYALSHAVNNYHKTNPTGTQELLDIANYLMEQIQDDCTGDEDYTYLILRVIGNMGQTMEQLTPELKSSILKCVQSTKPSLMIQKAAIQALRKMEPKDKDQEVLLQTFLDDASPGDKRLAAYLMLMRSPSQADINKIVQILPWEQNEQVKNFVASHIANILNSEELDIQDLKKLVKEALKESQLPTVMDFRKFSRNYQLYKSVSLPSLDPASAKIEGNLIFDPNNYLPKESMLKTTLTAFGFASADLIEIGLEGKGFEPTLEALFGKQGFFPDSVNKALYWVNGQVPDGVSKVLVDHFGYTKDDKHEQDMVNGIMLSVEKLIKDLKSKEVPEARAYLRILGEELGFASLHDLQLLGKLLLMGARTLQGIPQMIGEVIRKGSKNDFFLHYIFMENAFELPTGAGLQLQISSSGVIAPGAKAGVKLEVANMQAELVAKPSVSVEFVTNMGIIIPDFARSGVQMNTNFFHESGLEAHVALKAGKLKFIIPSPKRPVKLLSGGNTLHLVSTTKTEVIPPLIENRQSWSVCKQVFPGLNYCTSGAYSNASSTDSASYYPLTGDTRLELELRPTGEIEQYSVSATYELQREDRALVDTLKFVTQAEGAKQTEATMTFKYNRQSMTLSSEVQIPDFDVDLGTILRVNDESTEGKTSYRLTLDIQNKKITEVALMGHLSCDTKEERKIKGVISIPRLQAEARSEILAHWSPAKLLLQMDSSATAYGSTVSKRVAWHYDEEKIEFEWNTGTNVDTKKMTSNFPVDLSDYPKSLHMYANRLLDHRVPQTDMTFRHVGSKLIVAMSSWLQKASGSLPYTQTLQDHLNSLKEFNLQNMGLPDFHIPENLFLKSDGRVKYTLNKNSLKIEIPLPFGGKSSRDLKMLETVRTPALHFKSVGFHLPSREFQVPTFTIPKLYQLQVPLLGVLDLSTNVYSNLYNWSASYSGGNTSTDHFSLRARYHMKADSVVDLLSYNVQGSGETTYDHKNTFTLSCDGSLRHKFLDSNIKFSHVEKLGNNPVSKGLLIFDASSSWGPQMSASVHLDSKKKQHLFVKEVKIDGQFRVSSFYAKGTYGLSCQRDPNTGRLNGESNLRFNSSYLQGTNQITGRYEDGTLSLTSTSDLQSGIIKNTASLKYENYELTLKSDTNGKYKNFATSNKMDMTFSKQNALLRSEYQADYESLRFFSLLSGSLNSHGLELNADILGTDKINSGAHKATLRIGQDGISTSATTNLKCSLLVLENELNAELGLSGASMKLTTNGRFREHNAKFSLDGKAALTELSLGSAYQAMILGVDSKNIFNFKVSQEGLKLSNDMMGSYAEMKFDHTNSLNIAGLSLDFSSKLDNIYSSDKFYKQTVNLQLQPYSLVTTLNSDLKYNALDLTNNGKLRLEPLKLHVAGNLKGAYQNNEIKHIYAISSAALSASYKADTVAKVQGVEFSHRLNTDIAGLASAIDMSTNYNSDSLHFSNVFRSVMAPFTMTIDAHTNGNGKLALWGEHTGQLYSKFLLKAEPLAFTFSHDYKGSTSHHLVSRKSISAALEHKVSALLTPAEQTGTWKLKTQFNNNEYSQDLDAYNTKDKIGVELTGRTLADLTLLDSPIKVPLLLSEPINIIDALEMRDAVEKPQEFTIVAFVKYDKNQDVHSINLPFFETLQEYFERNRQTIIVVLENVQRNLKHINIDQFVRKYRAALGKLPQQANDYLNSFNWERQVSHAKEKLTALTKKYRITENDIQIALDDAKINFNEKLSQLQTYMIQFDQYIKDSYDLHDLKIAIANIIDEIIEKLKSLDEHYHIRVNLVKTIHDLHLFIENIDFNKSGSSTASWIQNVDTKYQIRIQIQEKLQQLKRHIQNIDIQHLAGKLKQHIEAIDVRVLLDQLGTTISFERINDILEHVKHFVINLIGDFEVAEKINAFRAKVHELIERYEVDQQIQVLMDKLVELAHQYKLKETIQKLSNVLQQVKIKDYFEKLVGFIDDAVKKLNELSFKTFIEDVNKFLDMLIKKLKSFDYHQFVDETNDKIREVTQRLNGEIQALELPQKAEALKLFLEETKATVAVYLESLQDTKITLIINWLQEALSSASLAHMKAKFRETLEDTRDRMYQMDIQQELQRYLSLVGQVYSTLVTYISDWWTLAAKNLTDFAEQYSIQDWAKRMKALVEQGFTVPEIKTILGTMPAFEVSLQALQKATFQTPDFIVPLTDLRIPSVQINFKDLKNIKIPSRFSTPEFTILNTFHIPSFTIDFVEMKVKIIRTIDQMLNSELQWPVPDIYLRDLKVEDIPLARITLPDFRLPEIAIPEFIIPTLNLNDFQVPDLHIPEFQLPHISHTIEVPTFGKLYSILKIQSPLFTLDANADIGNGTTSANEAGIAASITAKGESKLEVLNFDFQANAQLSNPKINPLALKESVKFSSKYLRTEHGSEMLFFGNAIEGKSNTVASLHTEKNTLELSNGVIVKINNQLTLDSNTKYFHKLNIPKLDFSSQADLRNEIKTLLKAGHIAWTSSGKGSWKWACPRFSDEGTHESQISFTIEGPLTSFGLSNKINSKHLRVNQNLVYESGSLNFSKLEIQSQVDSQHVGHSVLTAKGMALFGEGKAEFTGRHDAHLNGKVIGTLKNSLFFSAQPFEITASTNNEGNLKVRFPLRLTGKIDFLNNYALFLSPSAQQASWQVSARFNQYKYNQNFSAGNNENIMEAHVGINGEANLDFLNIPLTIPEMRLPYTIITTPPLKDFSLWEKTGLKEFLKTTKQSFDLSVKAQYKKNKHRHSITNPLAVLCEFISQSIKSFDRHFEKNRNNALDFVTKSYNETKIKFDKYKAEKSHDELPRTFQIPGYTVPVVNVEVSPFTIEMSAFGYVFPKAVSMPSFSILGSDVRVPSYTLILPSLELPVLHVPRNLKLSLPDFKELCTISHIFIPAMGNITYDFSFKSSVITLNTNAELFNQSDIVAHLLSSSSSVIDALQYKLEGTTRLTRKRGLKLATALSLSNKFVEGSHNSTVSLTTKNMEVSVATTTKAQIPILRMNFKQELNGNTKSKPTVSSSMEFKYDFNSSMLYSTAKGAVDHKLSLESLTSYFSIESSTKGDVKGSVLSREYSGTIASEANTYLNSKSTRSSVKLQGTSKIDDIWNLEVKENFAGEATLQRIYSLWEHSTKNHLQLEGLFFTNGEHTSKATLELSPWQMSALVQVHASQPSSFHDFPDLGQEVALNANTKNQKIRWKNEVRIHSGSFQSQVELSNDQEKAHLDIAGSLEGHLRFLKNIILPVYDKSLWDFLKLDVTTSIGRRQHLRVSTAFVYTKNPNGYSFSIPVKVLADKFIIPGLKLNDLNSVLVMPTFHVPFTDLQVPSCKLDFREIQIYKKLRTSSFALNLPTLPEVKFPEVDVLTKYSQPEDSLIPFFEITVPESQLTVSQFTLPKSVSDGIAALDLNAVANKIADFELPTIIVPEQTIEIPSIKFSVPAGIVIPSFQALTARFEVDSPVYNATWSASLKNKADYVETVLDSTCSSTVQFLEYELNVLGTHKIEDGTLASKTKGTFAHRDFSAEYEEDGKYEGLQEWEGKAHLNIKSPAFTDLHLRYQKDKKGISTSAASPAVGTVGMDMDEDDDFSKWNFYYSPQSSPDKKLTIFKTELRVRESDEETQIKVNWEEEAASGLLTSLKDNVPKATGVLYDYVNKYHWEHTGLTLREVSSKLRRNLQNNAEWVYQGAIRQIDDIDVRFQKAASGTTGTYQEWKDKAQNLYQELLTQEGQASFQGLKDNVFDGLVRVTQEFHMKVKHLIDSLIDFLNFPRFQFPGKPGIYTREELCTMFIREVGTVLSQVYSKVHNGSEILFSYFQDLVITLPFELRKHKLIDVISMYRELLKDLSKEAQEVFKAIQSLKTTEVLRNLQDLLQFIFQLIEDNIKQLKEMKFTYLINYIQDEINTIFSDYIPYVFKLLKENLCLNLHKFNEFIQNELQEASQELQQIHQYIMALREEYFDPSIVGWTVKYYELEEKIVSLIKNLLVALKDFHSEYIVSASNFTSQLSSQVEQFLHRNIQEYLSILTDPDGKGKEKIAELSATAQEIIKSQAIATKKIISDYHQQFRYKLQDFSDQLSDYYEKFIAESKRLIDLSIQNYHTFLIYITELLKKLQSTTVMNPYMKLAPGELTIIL

Results are given in words; binding and its absence hold for the method and conditions named. Some results given as binding are weak or reduced against the parent protein; the word gives no strength.

B1: 2D03 (antibody, V domains shown)
VH: EVQLLESGGGLVQPGGSLRLSCAASGFTFSNAWMSWVRQAPGKGLEWVSSISVGGHRTYYADSVKGRSTISRDNSKNTLYLQMNSLRAEDTAVYYCARIRVGPSGGAFDYWGQGTLVTVSS
VL: QSVLTQPPSASGTPGQRVTISCSGSNTNIGKNYVSWYQQLPGTAPKLLIYANSNRPSGVPDRFSGSKSGTSASLAISGLRSEDEADYYCASWDASLNGWVFGGGTKLTVLG
Turning to B1, the binding result was “binds”.

The values are drawn from patent publication US20110256134A1.
